Test results as given in PubChem BioAssay AID250 (DTP/NCI, 2004).
The list does not hold the whole screen: it gathers some chemical classes. Other doses and runs of a compound may be missing. T/C gives the treated animals as a percentage of the vehicle group. For survival time, the PubChem record calls one and a half times the control and up active, and a quarter to a half above the control has no call in these data; cut-offs in other NCI protocols can differ. Some T/C values are marked as having no survivor count here; that says nothing about deaths at the dose. Schedules are NCI's codes, taken here to give the interval after Q, in days (D) or hours (H), and the number of doses after X. Some schedules carry Z or #; the key to these is not given. Some entries hold several experiments; the values are given in rising order.

Experiments:
[1] = tested on: BDF1 mice, L1210 leukemia sc, survival T/C; experiment: NCI In Vivo Anticancer Drug Screen. Data for tumor model L1210 Leukemia (subcutaneous) in B6D2F1 (BDF1) mice; settings: T/C endpoint: median survival time, higher T/C = longer survival
Procedure: (§1) The antitumor activity of compounds was measured in mice bearing transplantable tumors. Survival or tumor size were measured and the results are expressed as the measurement made in the treated group (T) divided by the measurement made in the vehicle treated control group (C). The tumor model used in this assay is L1210 Leukemia (subcutaneous) in B6D2F1 (BDF1) mice

[2] = tested on: BDF1 mice, L1210 leukemia sc; experiment: as above; settings: T/C endpoint: median survival time, schedule: Q01DX Z (sc), higher T/C = longer survival
Procedure: as §1

With `CN(CCCl)CCCl` the T/C ([1]; dose: 0.06 mg/kg/injection, schedule: Q01DX009 (ip), vehicle: saline) was 95 % of control [survivor count not shown], the T/C ([1]; dose: 0.12 mg/kg/injection, schedule: Q01DX009 (ip), vehicle: saline) was 100 % of control [survivor count not shown] and the T/C ([1]; dose: 0.23 mg/kg/injection, schedule: Q01DX Z (sc), vehicle: methylcellulose (MC)) was 109 % of control [survivor count not shown]. The T/C ([1]; dose: 0.25 mg/kg/injection, schedule: Q01DX009 (ip), vehicle: saline) was 90 % of control [survivor count not shown], the T/C ([1]; dose: 0.39 mg/kg/injection, schedule: Q01DX Z (sc), vehicle: methylcellulose (MC)) was 100 % of control [survivor count not shown] and the T/C ([1]; dose: 0.39 mg/kg/injection, schedule: Q01DX Z (sc), vehicle: other) was 100 % of control [survivor count not shown]. For the same molecule, the T/C ([1]; dose: 0.39 mg/kg/injection, schedule: Q01DX Z (sc), vehicle: saline) was 104 % of control [survivor count not shown], the T/C ([1]; dose: 0.39 mg/kg/injection, schedule: Q01DX Z (sc), vehicle: water) was 100 % of control [survivor count not shown] and the T/C ([1]; dose: 0.47 mg/kg/injection, schedule: Q01DX Z (sc), vehicle: saline) was 112 % of control [survivor count not shown]. The T/C ([1]; dose: 0.5 mg/kg/injection, schedule: Q01DX009 (ip), vehicle: saline) was 105 % of control [survivor count not shown], the T/C ([1]; dose: 0.5 mg/kg/injection, schedule: Q01DX009 (sc), vehicle: saline) was 107 % of control [survivor count not shown] and the T/C ([1]; dose: 0.65 mg/kg/injection, schedule: Q01DX Z (sc), vehicle: methylcellulose (MC)) was 104 % of control [survivor count not shown]. For the same molecule, the T/C ([1]; dose: 0.65 mg/kg/injection, schedule: Q01DX Z (sc), vehicle: other) was 100 % of control [survivor count not shown], the T/C ([1]; dose: 0.65 mg/kg/injection, schedule: Q01DX Z (sc), vehicle: saline) was 100 % of control [survivor count not shown] and the T/C ([1]; dose: 0.65 mg/kg/injection, schedule: Q01DX Z (sc), vehicle: water) was 105 % of control [survivor count not shown]. For the same molecule, the T/C ([1]; dose: 1.0 mg/kg/injection, schedule: Q01DX009 (sc), vehicle: saline) was 113 % of control [survivor count not shown], the T/C ([1]; dose: 1.08 mg/kg/injection, schedule: Q01DX Z (sc), vehicle: methylcellulose (MC)) was 109 % of control [survivor count not shown] and the T/C ([1]; dose: 1.08 mg/kg/injection, schedule: Q01DX Z (sc), vehicle: other) was 105 % of control [survivor count not shown]. The T/C ([1]; dose: 1.08 mg/kg/injection, schedule: Q01DX Z (sc), vehicle: saline) was 109 [survivor count not shown] and 122 % of control [survivor count not shown], the T/C ([1]; dose: 1.08 mg/kg/injection, schedule: Q01DX Z (sc), vehicle: water) was 105 % of control [survivor count not shown] and the T/C ([1]; dose: 1.3 mg/kg/injection, schedule: Q01DX Z (iv), vehicle: saline) was 118 % of control [survivor count not shown]. For the same molecule, the T/C ([1]; dose: 1.8 mg/kg/injection, schedule: Q01DX Z (sc), vehicle: methylcellulose (MC)) was 113 % of control [survivor count not shown], the T/C ([1]; dose: 1.8 mg/kg/injection, schedule: Q01DX Z (sc), vehicle: other) was 100 % of control [survivor count not shown] and the T/C ([1]; dose: 1.8 mg/kg/injection, schedule: Q01DX Z (sc), vehicle: saline) was 118 % of control [survivor count not shown]. For the same molecule, the T/C ([1]; dose: 1.8 mg/kg/injection, schedule: Q01DX Z (sc), vehicle: water) was 110 % of control [survivor count not shown], the T/C ([1]; dose: 2.0 mg/kg/injection, schedule: Q01DX009 (sc), vehicle: saline) was 116 % of control [survivor count not shown] and the T/C ([1]; dose: 3.0 mg/kg/injection, schedule: Q01DX Z (sc), vehicle: methylcellulose (MC)) was 118 % of control [survivor count not shown]. The T/C ([1]; dose: 3.0 mg/kg/injection, schedule: Q01DX Z (sc), vehicle: other) was 105 % of control [survivor count not shown], the T/C ([1]; dose: 3.0 mg/kg/injection, schedule: Q01DX Z (sc), vehicle: saline) was 118 % of control [survivor count not shown] and the T/C ([1]; dose: 4.0 mg/kg/injection, schedule: Q01DX009 (sc), vehicle: saline) was 103 % of control [survivor count not shown]. For the same molecule, the T/C ([1]; dose: 5.0 mg/kg/injection, schedule: Q01DX Z (sc), vehicle: methylcellulose (MC)) was 109 % of control [survivor count not shown], the T/C ([1]; dose: 5.0 mg/kg/injection, schedule: Q01DX Z (sc), vehicle: other) was 110 % of control [survivor count not shown] and the T/C ([1]; dose: 5.0 mg/kg/injection, schedule: Q01DX Z (sc), vehicle: saline) was 118 % of control [survivor count not shown]. The T/C ([1]; dose: 5.0 mg/kg/injection, schedule: Q01DX Z (sc), vehicle: water) was 120 % of control [survivor count not shown], the T/C ([1]; dose: 6.0 mg/kg/injection, schedule: Q01DX Z (oral), vehicle: saline) was 112 % of control [survivor count not shown] and the T/C ([1]; dose: 8.0 mg/kg/injection, schedule: Q01DX009 (sc), vehicle: saline) was 103 % of control [survivor count not shown]. For the same molecule, the T/C ([1]; dose: 8.4 mg/kg/injection, schedule: Q01DX Z (sc), vehicle: methylcellulose (MC)) was 109 % of control [survivor count not shown], the T/C ([1]; dose: 8.4 mg/kg/injection, schedule: Q01DX Z (sc), vehicle: saline) was 118 % of control [survivor count not shown] and the T/C ([2]; dose: 1.3 mg/kg/injection, vehicle: saline) was 125 % of control [survivor count not shown]. The T/C ([2]; dose: 1.8 mg/kg/injection, vehicle: saline) was 127 % of control [survivor count not shown], the T/C ([2]; dose: 2.16 mg/kg/injection, vehicle: saline) was 125 % of control [survivor count not shown] and the T/C ([2]; dose: 3.0 mg/kg/injection, vehicle: saline) was 133 % of control [survivor count not shown]. The T/C ([2]; dose: 3.0 mg/kg/injection, vehicle: water) was 130 % of control [survivor count not shown].
